These are yes or no findings as the source states them, for the method shown. In cells and extracts the contact can be indirect. Here binding means that the protein was enriched with, or labelled near, the bait; the list need not be complete. Each block holds one binder with its values, some of them ahead of it.
Target: T1, ARL15^A86L (BioID bait) (UniProt Q9NXU5)
T1 sequence: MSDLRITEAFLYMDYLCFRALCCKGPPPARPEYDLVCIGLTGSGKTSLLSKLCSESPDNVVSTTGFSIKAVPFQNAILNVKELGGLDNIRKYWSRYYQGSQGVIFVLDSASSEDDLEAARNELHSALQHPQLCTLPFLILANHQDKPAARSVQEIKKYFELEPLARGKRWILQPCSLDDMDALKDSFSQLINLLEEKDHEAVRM
Test: proximity labelling; BioID; cleared lysates of ARL15^A86L expressing Flp-In T-REx HeLa cells on streptavidin beads, on-bead trypsin digestion, mass spectrometry; SAINT AvgP >= 0.95

binding: binds
B1: GOLGA3 (protein, UniProt Q08378 1-1498)
chain: MDGASAEQDGLQEDRSHSGPSSLPEAPLKPPGPLVPPDQQDKVQCAEVNRASTEGESPDGPGQGGLCQNGPTPPFPDPPSSLDPTTSPVGPDASPGVAGFHDNLRKSQGTSAEGSVRKEALQSLRLSLPMQETQLCSTDSPLPLEKEEQVRLQARKWLEEQLKQYRVKRQQERSSQPATKTRLFSTLDPELMLNPENLPRASTLAMTKEYSFLRTSVPRGPKVGSLGLPAHPREKKTSKSSKIRSLADYRTEDSNAGNSGGNVPAPDSTKGSLKQNRSSAASVVSEISLSPDTDDRLENTSLAGDSVSEVDGNDSDSSSYSSASTRGTYGILSKTVGTQDTPYMVNGQEIPADTLGQFPSIKDVLQAAAAEHQDQGQEVNGEVRSRRDSICSSVSLESSAAETQEEMLQVLKEKMRLEGQLEALSLEASQALKEKAELQAQLAALSTKLQAQVECSHSSQQRQDSLSSEVDTLKQSCWDLERAMTDLQNMLEAKNASLASSNNDLQVAEEQYQRLMAKVEDMQRSMLSKDNTVHDLRQQMTALQSQLQQVQLERTTLTSKLKASQAEISSLQSVRQWYQQQLALAQEARVRLQGEMAHIQVGQMTQAGLLEHLKLENVSLSQQLTETQHRSMKEKGRIAAQLQGIEADMLDQEAAFMQIQEAKTMVEEDLQRRLEEFEGERERLQRMADSAASLEQQLEQVKLTLLQRDQQLEALQQEHLDLMKQLTLTQEALQSREQSLDALQTHYDELQARLGELQGEAASREDTICLLQNEKIILEAALQAAKSGKEELDRGARRLEEGTEETSETLEKLREELAIKSGQVEHLQQETAALKKQMQKIKEQFLQQKVMVEAYRRDATSKDQLISELKATRKRLDSELKELRQELMQVHGEKRTAEAELSRLHREVAQVRQHMADLEGHLQSAQKERDEMETHLQSLQFDKEQMVAVTEANEALKKQIEELQQEARKAITEQKQKMRRLGSDLTSAQKEMKTKHKAYENAVGILSRRLQEALAAKEAADAELGQLRAQGGSSDSSLALHERIQALEAELQAVSHSKTLLEKELQEVIALTSQELEESREKVLELEDELQESRGFRKKIKRLEESNKKLALELEHEKGKLTGLGQSNAALREHNSILETALAKREADLVQLNLQVQAVLQRKEEEDRQMKHLVQALQASLEKEKEKVNSLKEQVAAAKVEAGHNRRHFKAASLELSEVKKELQAKEHLVQKLQAEADDLQIREGKHSQEIAQFQAELAEARAQLQLLQKQLDEQLSKQPVGNQEMENLKWEVDQKEREIQSLKQQLDLTEQQGRKELEGLQQLLQNVKSELEMAQEDLSMTQKDKFMLQAKVSELKNNMKTLLQQNQQLKLDLRRGAAKTRKEPKGEASSSNPATPIKIPDCPVPASLLEELLRPPPAVSKEPLKNLNSCLQQLKQEMDSLQRQMEEHALTVHESLSSWTPLEPATASPVPPGGHAGPRGDPQRHSQSRASKEGPGE

binding: binds
B2: Golgi SNAP receptor complex member 1 (GOSR1) (protein, UniProt O95249 1-250)
chain: MAAGTSSYWEDLRKQARQLENELDLKLVSFSKLCTSYSHSSTRDGRRDRYSSDTTPLLNGSSQDRMFETMAIEIEQLLARLTGVNDKMAEYTNSAGVPSLNAALMHTLQRHRDILQDYTHEFHKTKANFMAIRERENLMGSVRKDIESYKSGSGVNNRRTELFLKEHDHLRNSDRLIEETISIAMATKENMTSQRGMLKSIHSKMNTLANRFPAVNSLIQRINLRKRRDSLILGGVIGICTILLLLYAFH
